Assay results: publication PMC6624258
No constants are given. Whether binding was seen depends on the method and setting. Binding seen in cells or lysates may run through a third protein. Some entries that bind do so weakly or less than the wild type. Blank lines part the entries; values can stand above or below the molecule they belong to.

Sequences of proteins named here, by UniProt entry; tags and fusion partners are left off.
UniProt O88382: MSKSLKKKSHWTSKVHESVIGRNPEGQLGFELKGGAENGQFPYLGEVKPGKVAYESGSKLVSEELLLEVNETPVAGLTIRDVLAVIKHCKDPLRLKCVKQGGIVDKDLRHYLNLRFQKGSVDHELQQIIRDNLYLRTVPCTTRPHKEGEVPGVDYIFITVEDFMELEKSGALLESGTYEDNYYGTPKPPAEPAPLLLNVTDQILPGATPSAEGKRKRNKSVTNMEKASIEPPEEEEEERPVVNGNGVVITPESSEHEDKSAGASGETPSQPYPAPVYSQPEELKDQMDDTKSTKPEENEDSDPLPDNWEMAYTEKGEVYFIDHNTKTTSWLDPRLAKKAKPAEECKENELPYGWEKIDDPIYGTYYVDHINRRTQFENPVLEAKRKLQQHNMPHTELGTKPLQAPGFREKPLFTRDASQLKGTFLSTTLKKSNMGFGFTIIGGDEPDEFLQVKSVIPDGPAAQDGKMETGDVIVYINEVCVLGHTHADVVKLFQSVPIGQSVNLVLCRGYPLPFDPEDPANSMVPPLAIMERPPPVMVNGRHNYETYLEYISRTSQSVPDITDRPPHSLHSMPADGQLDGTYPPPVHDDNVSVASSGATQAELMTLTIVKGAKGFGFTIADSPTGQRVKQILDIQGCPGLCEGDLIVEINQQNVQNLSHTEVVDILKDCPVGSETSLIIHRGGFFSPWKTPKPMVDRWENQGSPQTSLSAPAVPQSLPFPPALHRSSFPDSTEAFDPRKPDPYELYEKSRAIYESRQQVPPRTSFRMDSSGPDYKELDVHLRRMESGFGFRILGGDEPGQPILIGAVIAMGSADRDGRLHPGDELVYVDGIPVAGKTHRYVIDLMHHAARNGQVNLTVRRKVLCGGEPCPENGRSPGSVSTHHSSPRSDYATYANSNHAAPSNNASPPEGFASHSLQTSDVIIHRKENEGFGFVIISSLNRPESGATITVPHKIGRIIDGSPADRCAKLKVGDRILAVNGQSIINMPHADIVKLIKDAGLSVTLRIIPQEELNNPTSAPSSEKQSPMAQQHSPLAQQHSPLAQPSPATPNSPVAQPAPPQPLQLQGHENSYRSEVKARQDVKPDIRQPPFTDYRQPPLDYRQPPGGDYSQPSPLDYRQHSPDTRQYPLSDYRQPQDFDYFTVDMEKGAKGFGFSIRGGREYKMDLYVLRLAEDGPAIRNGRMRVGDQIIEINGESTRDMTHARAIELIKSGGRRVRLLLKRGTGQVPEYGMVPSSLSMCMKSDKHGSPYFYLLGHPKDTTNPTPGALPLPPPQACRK
UniProt Q9EQG6: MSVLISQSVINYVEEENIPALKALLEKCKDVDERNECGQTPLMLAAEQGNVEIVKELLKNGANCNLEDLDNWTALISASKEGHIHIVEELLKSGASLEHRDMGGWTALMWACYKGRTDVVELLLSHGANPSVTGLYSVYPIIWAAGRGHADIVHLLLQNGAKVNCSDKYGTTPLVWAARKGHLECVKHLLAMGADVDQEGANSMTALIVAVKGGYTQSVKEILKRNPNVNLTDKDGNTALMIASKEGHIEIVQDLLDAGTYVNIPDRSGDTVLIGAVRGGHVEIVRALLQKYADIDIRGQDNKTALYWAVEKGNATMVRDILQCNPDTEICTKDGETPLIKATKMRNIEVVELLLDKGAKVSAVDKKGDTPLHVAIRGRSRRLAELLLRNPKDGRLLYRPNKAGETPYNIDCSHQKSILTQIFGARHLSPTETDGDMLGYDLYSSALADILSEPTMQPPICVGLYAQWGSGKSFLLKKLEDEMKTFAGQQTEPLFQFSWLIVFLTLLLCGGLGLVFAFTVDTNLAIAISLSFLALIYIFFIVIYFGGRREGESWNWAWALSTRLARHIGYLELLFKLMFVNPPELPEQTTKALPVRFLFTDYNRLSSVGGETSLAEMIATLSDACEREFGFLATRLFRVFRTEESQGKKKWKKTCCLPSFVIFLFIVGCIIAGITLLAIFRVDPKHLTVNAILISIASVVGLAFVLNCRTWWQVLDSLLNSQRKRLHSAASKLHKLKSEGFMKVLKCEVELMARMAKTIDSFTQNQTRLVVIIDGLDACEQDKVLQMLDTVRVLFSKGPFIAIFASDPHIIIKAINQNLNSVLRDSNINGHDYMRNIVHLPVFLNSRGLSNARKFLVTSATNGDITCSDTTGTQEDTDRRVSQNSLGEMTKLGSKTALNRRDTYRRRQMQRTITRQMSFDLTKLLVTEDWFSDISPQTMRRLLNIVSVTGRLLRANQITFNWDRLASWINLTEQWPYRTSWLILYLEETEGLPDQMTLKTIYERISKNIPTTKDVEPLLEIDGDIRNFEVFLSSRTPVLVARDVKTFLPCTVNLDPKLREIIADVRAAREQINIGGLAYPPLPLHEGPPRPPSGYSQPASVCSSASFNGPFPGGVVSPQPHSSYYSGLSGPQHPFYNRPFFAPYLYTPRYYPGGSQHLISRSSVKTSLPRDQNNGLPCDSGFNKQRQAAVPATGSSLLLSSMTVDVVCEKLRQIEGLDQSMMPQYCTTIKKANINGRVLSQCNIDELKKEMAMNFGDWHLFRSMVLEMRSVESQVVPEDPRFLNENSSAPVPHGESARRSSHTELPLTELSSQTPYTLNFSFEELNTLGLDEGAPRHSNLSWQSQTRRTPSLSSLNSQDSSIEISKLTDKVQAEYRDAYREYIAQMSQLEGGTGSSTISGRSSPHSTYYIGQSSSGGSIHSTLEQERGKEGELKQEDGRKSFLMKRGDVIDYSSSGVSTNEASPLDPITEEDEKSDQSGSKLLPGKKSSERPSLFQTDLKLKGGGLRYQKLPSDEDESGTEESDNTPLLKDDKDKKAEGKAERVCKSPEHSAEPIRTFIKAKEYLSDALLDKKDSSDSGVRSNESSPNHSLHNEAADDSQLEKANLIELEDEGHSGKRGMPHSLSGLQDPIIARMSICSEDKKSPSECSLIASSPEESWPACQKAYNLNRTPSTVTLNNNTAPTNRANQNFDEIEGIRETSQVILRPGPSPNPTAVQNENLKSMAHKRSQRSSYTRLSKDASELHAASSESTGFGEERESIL

Target: S-SCAM (rat (endogenous in primary cortical neurons)) (UniProt O88382)
Assay: co-IP; S-SCAM immunoprecipitated from lysates of untreated or 1 h NMDA-treated (100 µM NMDA, 10 µM glycine) rat cortical neurons; immunocomplexes analysed by immunoblot

binding: binds
Molecule: Kinase D-interacting substrate of 220 kDa (Kidins220) (from UniProt Q9EQG6 1-1762)

binding: binds
B1: PDZ-GEF1 (protein, UniProt F1M386 1-1496)
chain: MKPLAAPANHGVLGQQEKQSLPADFTKLHLTDSLHPQVTHVSSSHSGCSITSDSGSSSLSDIYQATESEAGDMDLSGLPETAVDSEDDDDEEDIERASDPLMSRDIVRDCLEKDPIDRTDDDIEQLLEFMHQLPAFANMTMSVRRELCAVMVFAVVERAGTIVLNDGEELDSWSVILNGSVEVTYPDGKAEILCMGNSFGVSPTMDKEYMKGVMRTKVDDCQFVCIAQQDYCRILNQVEKNMQKVEEEGEIVMVKEHRELDRTGTRKGHIVIKGTSERLTMHLVEEHSVVDPTFIEDFLLTYRTFLSSPMEVGKKLLEWFNDPSLRDKVTRVVLLWVNNHFNDFEGDPAMTRFLEEFENNLEREKMGGHLRLLNIACAAKAKRRSMTLTKPSREAPLPFILLGGSEKGFGIFVDSVDSSSKATEAGLKRGDQILEVNGQNFENIQLSKAMEILRNNTHLSITVKTNLFVFKELLTRLSEEKRNGAPHLPKIGDIKKASRYSIPDLAVDVEQVIGLEKVNKKSKANTVGGRNKLKKILDKTRISILPQKPYNDIGIGQSQDDSIVGLRQTKHIPAALPVSGTLSSSNPDLLQSHHRILDFSTTPDLPDQVLRVFKADQQSRYIMISKDTTAKEVVIQAIREFAVTATPEQYSLCEVSVTPEGVIKQRRLPDQLSKLADRIQLSGRYYLKNNMETETLCSDEDAQELLRESQISLLQLSTVEVATQLSMRNFELFRNIEPTEYIDDLFKLKSKTSCANLKKFEEVINQETFWVASEILRETNQLKRMKIIKHFIKIALHCRECKNFNSMFAIISGLNLAPVARLRTTWEKLPNKYEKLFQDLQDLFDPSRNMAKYRNVLSGQNLQPPVIPLFPVIKKDLTFLHEGNDSKVDGLVNFEKLRMIAKEIRHVGRMASVNMDPALMFRTRKKKWRSLGSLSQGSANATVLDVAQTGGHKKRVRRSSFLNAKKLYEDAQMARKVKQYLSNLELEMDEESLQTLSLQCEPATSTLPKNPADRKPVKSETSPVAPRAGPQQKAQPQQPLAPPQPSHKVSQGLQVPAVSLYPSRKKVPVKDLPPFGINSPQALKKILSLSEEGSLERHRKQAEDTISNASSQLSSPPTSPQSSPRKGYALALSGTVDNFSDSGHSEISSRSSIVSNSSFDSVPVSLHDERRQRHSVSIVESNLGVGRMERRTLMEPDQYSLGSYAPVSESRGLYAAATVISSPSTEELSHDQGDRASLDAADSGRGSWTSCSSGSHDNIQTIQHQRSWETLPFGHTHFDYSGDATGIWASGGHMDQIMFSDHSTKYNRQNQSRESLEQAQSRASWASSTGYWGEDSEGDTGTIKRRGGKDVSTEAESSSMVPVTTEEAKPVPMPAHIAVTPSTTKGLIARKEGRYREPPPTPPGYVGIPIADFPEGPCHPARKPPDYNVALQRSRMVARPTEAPAPGQTPPAATASRPGSKPQWHKPSDADPRLAPFQPQGFAGAEEDEDEQVSAV
